According to paper doi:10.1101/2020.08.16.252940:
No constants are given. Whether binding was seen depends on the method and setting. Binding seen in cells or lysates may run through a third protein. Some results given as binding are weak or reduced against the parent protein; the word gives no strength.

The chains behind the UniProt entries cited, without tags or fusion partners. Residues count along the entry.
UniProt Q9NZQ7, residues 19-290: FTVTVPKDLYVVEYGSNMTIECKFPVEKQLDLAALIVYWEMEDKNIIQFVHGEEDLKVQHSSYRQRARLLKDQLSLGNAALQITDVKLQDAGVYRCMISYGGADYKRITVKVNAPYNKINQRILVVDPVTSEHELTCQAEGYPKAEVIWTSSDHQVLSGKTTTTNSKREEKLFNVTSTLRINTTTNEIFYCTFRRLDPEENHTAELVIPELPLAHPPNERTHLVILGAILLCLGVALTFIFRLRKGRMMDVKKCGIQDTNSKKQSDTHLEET

Target: T1, Vitamin-D receptor (VDR) (human (endogenous in SKOV-3, OVCAR-8, DAOY, D283)) (UniProt P11473)
T1 sequence: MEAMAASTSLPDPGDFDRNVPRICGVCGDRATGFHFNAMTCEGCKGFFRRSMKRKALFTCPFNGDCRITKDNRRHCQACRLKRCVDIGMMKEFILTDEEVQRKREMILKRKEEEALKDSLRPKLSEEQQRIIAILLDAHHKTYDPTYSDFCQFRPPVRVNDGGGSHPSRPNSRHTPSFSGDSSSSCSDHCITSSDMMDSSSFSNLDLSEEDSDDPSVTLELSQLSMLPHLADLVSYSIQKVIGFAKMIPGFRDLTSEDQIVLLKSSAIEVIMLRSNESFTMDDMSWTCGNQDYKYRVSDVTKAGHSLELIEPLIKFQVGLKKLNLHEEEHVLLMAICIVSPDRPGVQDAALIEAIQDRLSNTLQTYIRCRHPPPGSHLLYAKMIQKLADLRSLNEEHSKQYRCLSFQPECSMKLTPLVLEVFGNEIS
Experiment: co-IP

Substance: Programmed death receptor ligand (PD-L1) (from UniProt Q9NZQ7 19-290)
- binding: binds
